Microarray screen: hit calls

Calls as published in the ROBIN set (doi:10.1002/anie.202211358).

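The test is a small-molecule microarray: each compound is printed twice on a reactive slide, and binding shows as fluorescence of the labelled oligonucleotide after washing. The data file lists only calls. An earlier report of the laboratory on the PreQ1, TPP and SAM-II riboswitches (doi:10.1038/s41467-019-09493-3) used 1 µM RNA for 2 h and required a mean Z-score above 3 (spot signal-to-noise against the whole library), a score well above that on a control array, and duplicate spots agreeing (coefficient of variation under 100); it then also set aside compounds that hit other targets, which this list keeps. The cut-offs behind this list may differ. These are primary screening calls, not affinities; a compound without a hit may have attached poorly or may still bind in solution.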
“Y” means called a hit, “N” means screened and not called a hit.
This is an unselected part of the compounds tested.
A dash means that no call is listed here.

Oligonucleotides screened, 5′ to 3′:
PreQ1: PreQ1 riboswitch RNA pseudoknot, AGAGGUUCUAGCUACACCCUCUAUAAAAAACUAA. From B. subtilis. About 170 hits among about 24,000 compounds.
TPP: TPP riboswitch RNA three-way junction, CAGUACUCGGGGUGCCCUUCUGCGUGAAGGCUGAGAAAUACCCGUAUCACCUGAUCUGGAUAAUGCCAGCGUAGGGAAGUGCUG. About 160 hits among about 24,000 compounds.
SAM-II: SAM-II riboswitch RNA pseudoknot, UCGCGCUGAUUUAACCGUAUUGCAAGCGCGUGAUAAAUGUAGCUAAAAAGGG. About 200 hits among about 21,000 compounds.

| SMILES | PreQ1 | TPP | SAM-II |
|---|---|---|---|
| `Cc1ccccc1-c1ccc(C(=O)N2CC[C@H](N(C)C)[C@H](CCCO)C2)cc1` | N | N | N |
| `Cc1ccccc1Nc1c(-c2ccccc2)nc2ncccn12` | N | N | N |
| `Nc1nc(N=Cc2ccc(F)cc2)n[nH]1` | N | N | N |
| `O=C(NCCCNc1cccnc1)Nc1cccc(C(=O)N2CCCCC2)c1` | N | N | N |
| `Cc1cc(CNC(=O)c2ccccc2C2CCNC2)ccc1F` (stereo not shown) | N | N | N |
| `CCN(C(=O)c1sc2cccc(F)c2c1Cl)[C@H]1COC[C@@H]1O` | N | N | N |
| `CCc1ccccc1NC1=NS(=O)(=O)C(c2ccc(Cl)cc2)=C1C` | N | N | - |
| `c1cnc(N2CCCN(Cc3cc4n(n3)CCCNC4)CC2)nc1` | N | N | N |
| `C[C@](O)(COc1ccc(C#N)cc1)C(=O)Nc1ccc(C#N)c(C(F)(F)F)c1` | N | N | N |
| `O[C@@H]1CCCC[C@H]1n1nc(-c2cccnc2)nc1-c1ccc2c(c1)OCO2` | N | N | N |
| `COc1ccc(Cn2c(C(=O)O)c(CNCCc3ccco3)c3ccc(OC)cc32)cc1` | N | N | - |
| `Cc1ccc(-c2c(NCc3ccccc3)c(=O)c2=O)cc1C` | N | N | - |
| `CNCCN1C(=O)CC[C@H]2CN(C(=O)CCN3CCCCO3)CC[C@H]21` | N | N | N |
| `Cc1cnc(C)c(N2CC[C@@H](N3CCN(c4ccccn4)CC3)[C@H](O)C2)n1` | N | N | N |
| `Cc1nccn1CC(=O)N1CCC2(CC1)CNC(C(=O)O)C2` (stereo not shown) | N | N | N |
| `Cc1ccc(C(=O)OCCCCNC2=NS(=O)(=O)c3ccccc32)cc1` | N | N | N |
| `CNc1oc(COc2ccc(F)cc2)nc1C#N` | N | N | N |
| `O=C(O)c1ccc2cc(-c3ccc(O)c(C45CC6CC(CC(C6)C4)C5)c3)ccc2c1` | N | N | N |
| `c1ccc(CNc2ncnc3scc(C4COc5ccccc5O4)c23)cc1` (stereo not shown) | N | N | N |
| `O=C(c1cc(COc2c(F)cccc2F)on1)N1[C@@H]2CC[C@H]1CNC2` | N | N | N |
| `CCc1nc2c(c(NCc3noc(-c4ccco4)n3)n1)CCNCC2` | N | N | N |
| `COC(=O)c1ccc(C2C(C#N)=C(N)OC3=C2C(=O)CCC3)cc1` (stereo not shown) | N | N | N |
| `CNCC(=O)NCCc1c(OC)ccc2ccccc12` | N | N | N |
| `CC1CCCC(CC(=O)O)(CC(=O)O)C1` (stereo not shown) | N | N | N |
| `Cn1c(=N)n(CC(O)COc2ccccc2)c2ccccc21` (stereo not shown) | N | N | N |
| `CCOC(=O)C1=C(N)Oc2c(c(=O)oc3ccccc23)C12C(=O)Nc1ccc(Br)cc12` (stereo not shown) | N | N | N |
| `Cc1ccc2[nH]c(C(O)C(O)c3nc4cc(C)ccc4[nH]3)nc2c1` (stereo not shown) | N | N | N |
| `OCC(Cc1cccs1)Cn1ccnc1-c1ccccn1` (stereo not shown) | N | N | N |
| `Nc1ccc(-c2ccc(N)cc2S(=O)(=O)O)c(S(=O)(=O)O)c1` | N | N | N |
| `Cc1nc[nH]c1CSCCNC1CCOC2(CCOCC2)C1` (stereo not shown) | N | N | N |
| `Cc1nc(N2CCCCCCC2)ncc1C(C)NC(=O)C1(N)CC1` (stereo not shown) | N | N | N |
| `Cc1ccc2c(c1)c(CNC1Cc3ccccc3C1)nn2C` | N | N | N |
| `CCOc1ccc(CN2C[C@H]3CN(CCO)C[C@@]3(C(=O)O)C2)cc1Cl` | N | N | N |
| `COc1ccc(NC(=O)c2nccnc2CO)cc1OC` | N | N | N |
| `Cc1cc2c(c(=O)n1CC1CCCO1)C(c1ccccc1)C(C#N)=C(N)O2` (stereo not shown) | N | N | N |
| `Cc1cc(C)nc(Nc2nc3n(n2)CNc2ccccc2-3)n1` | N | N | N |
| `CC(C)OC(=O)C1=C(N)Oc2c(oc(CO)cc2=O)C1c1cccc(F)c1` (stereo not shown) | N | N | N |
| `Cc1ccc2c(c1)c1c3n2CCCNC3CCC1` (stereo not shown) | N | N | N |
| `COc1ccccc1Cn1c(C(C)O)nc2ccccc21` (stereo not shown) | N | N | N |
| `Cc1ccc(Nc2nc(C)cc(N3CCN(S(=O)(=O)c4ccccc4Cl)CC3)n2)cc1` | N | N | - |
| `O=C1N(c2ccccc2)C(C(O)c2ccccc2)=NC12CCCCC2` (stereo not shown) | N | N | N |
| `O=C(CSc1nc2ccc([N+](=O)[O-])cc2s1)c1ccc2ccccc2c1` | N | N | N |
| `CCOC(=O)c1cnc2c(-c3ccc(OC)c(OC)c3)c(CC)nn2c1N` | N | N | - |
| `N#CCNC(=O)c1ccc(-c2ccnc(Nc3ccc(N4CCOCC4)cc3)n2)cc1` | N | N | N |
| `CCOC(=O)c1cnc2c(-c3cccc(Cl)c3)c(COC)nn2c1N` | N | N | - |
| `Cc1cccc(N2CCN(CC(O)c3c[nH]c4ccccc34)CC2)c1C` (stereo not shown) | N | N | - |
| `Cc1c(Cl)cccc1NCc1nnc2n1CCCCC2` | N | N | N |
| `CCN(CC)CCOc1ccc(Cc2ccccc2)cc1` | N | N | N |
| `C#Cc1cccc(Nc2ncnc3cc(OCCOC)c(OCCOC)cc23)c1` | N | N | N |
| `COc1ccc(C)c(Cn2c(-c3nonc3N)nc3ccccc32)c1` | N | N | N |
| `Clc1ccc(CNCCOc2ccccn2)cc1` | N | N | N |
| `Cc1ccc(OCC(O)CN2C(=O)NC(C)(C)C2=O)c(C)c1` (stereo not shown) | N | N | N |
| `Nc1nc(CNC(=O)CCCn2cnc3ccccc3c2=O)cs1` | N | N | N |
| `Cc1cc(C(F)(F)F)nc(N2CCN(C(=O)[C@H](O)c3ccccc3)CC2)n1` | N | N | N |
| `Clc1ccccc1COc1cccc(CNCc2cccnc2)c1` | N | N | N |
| `Cc1ccc(NC(=O)Cn2nnc(C(=O)Nc3cccc(C)c3C)c2N)cc1C` | N | N | N |
| `COc1cccc(-n2c(CCO)nc3c(C)cccc32)n1` | N | N | N |
| `C[C@H]1CC[C@H]2NCCN[C@H]2C1` | N | N | N |
| `CN1CCCC2(CCN(C(=O)CCc3n[nH]c(N)n3)C2)C1=O` (stereo not shown) | N | N | N |
| `O=C1C(NC2CCCC2)=C(N2CCCCC2)C(=O)c2ccccc21` | N | N | N |
| `COc1ccc(Cl)cc1-n1nnc(C(=O)NCCO)c1C` | N | N | N |
| `CC(=O)c1sc(NC(C)C)nc1N` | N | N | N |
| `c1ccc(-c2ccc(-c3nccc4ccccc34)[nH]2)cc1` | N | N | N |
| `CCNC(=O)[C@@H]1C[C@H](N)CN1C(=O)c1cccnc1SC` | N | N | N |
| `Nc1c(-c2nc(-c3ccccc3F)no2)nnn1-c1ccc(Br)cc1` | N | N | - |
| `CCOC(=O)C1CCCN(c2c(NCCC3=CCCCC3)c(=O)c2=O)C1` (stereo not shown) | N | N | - |
| `COc1ccc(C(C)Nc2nc3ccc(C)cc3cc2-c2noc(C)n2)cc1` (stereo not shown) | N | N | - |
| `CCCCC(C=O)NC(=O)C(CC(C)C)NC(=O)OCc1ccccc1` (stereo not shown) | N | N | N |

6 of the entries, repeated:

| SMILES | PreQ1 | TPP | SAM-II |
|---|---|---|---|
| `N#CCNC(=O)c1ccc(-c2ccnc(Nc3ccc(N4CCOCC4)cc3)n2)cc1` | N | N | N |
| `Cn1c(=N)n(CC(O)COc2ccccc2)c2ccccc21` (stereo not shown) | N | N | N |
| `Cc1ccccc1Nc1c(-c2ccccc2)nc2ncccn12` | N | N | N |
| `CC(=O)c1sc(NC(C)C)nc1N` | N | N | N |
| `CCNC(=O)[C@@H]1C[C@H](N)CN1C(=O)c1cccnc1SC` | N | N | N |
| `Cc1cc(C(F)(F)F)nc(N2CCN(C(=O)[C@H](O)c3ccccc3)CC2)n1` | N | N | N |